Assay results: PubChem BioAssay AID493014 (National Center for Advancing Translational Sciences (NCATS), 2011)
“And” between values parts separate entries of the source, which are not always exact repeats. Identical values can stand only once. This is one part of the list. Further columns of the screen follow, without active or inactive calls. Compounds called inactive in the main read-out are mostly missing here. Words in brackets tell the shape of the fitted curve; partial curves, single points and poor fits give uncertain potencies.

Assay: qHTS Assay to Find Inhibitors of Chronic Active B-Cell Receptor Signaling
Settings: ABC-DLBCL IkBa-CBG/CBR reporter, luminescence ratio (green luciferase fused to IkBa over red control in TMD8 lymphoma cells), 4 h
From the text: NIH Molecular Libraries Probe Production Network [MLPCN] NIH Chemical Genomics Center [NCGC] MLPCN Grant: 1 R03 DA031086-01A1 PI Name: Dr. R. Eric Davis NCGC Assay Overview: Diffuse large B-cell lymphoma (DLBCL) is the most common category of non-Hodgkin lymphoma, with ~20,000 new cases per year in the United States. DLBCL should be regarded as a collection of different neoplasms. Microarray gene expression analysis has defined two principal types of DLBCL, named for their similarity to normal B cell stages or activation states: a germinal center B-cell (GCB) type, and an activated B-cell (ABC) type. In ABC-DLBCL, a constitutive high-level activity of the NF-kappaB family of transcription factors has been observed (1) and NF-kappaB target genes are more highly expressed in ABC primary tumors than in GCB tumors. Functional studies have shown a constitutive high-level activity of the IkappaB (inhibitor of kappa-B) kinase (IKK) complex. […] Further analysis of DLBCL primary tumors for NF-kappaB target gene expression imply that although CARD11 is required for constitutive IKK activity in all ABC-DLBCL lines, mutations in CARD11 may be the root cause of IKK activation only in lines or tumors with such mutations. In other words, CARD11 mutations may explain NF-kappaB activation in only 10% of ABC-DLBCL cases. […] This process has been termed 'chronic active BCR signaling' (CABS). The goal of this screen is to find small-molecule inhibitors of the CABS pathway found in ABC-DLBCL lines using a cell-based assay that measures IkappaBalpa stability, which has already been extensively validated in the OCI-Ly3 line (PubChem AID:445; REF: 4). […] The assay uses green (CBG68) and red (CBR) emitting beetle luciferases [Chroma-GloTM developed by Promega Corp.] where the green luciferase is fused to IkappaBalpha and the red luciferase is present in its native state. Both luciferase genes are stably present in the TMD8 human ABC DLBCL cell line, but their expression is under the control of tetracycline-inducible promoters. Following the addition of doxycycline to induce expression of the luciferases, the green luminescence in control cultures rises only slowly because the CBG fusion partner IkappaBalpha is targeted by IKK activity for rapid degradation. In contrast, green luminescence rises rapidly in the presence of proteasome inhibitors or IKK inhibitors. The rise in red luminescence of CBR is not affected by proteasome or IKK inhibitors, and serves as normalization for cell number and nonspecific effects. Compounds were screened as a concentration-titration series that ranged from 46 uM to 3 nM.
NCGC Assay Protocol Summary: Cells were seeded in 1536-well plates at 5000 cells/4uL in IMDM medium containing 0.5% FBS, w/o phenol red, 1% penicillin/streptomycin. Then, 23 nL of compounds or DMSO were delivered to each well using a pin tool. One uL 20ng/ml doxycycline was then dispensed into white solid 1536-well plates and the plates were incubated at 37C/5% C02 in a cell incubator for 4 hrs. Then 4 uL luminescent substrate mix (in-house prepared: 150 mM Tris-Cl, pH 7.6, 3 mM MgCl2, 1% Triton X-100, 5 mM DTT, 0.2 mM CoA, 0.15 mM ATP, 5 mM D-luciferin, final concentrations) was added to each well. The plate was incubated at r.t. for 10-15 min. The plates were measured on a ViewLux plate reader for green luminescence (540/20 nm filter) and red luminescence (618/8 nm filter). The green and red luminescent signals were corrected for red and green luminescence filter overlap using previously determined filter calibration constants (determined using the procedure outlined in the Promega Technical Manual; REF 4). The %Activity was determined from the ratio of corrected green/red luminescent values. MG132 were used as control. […] Red luminescent %Activity was normalized to the difference between red luminesence in basal cells (0%Activity) and zero luminescence (-100% Activity). […]

[1] = measured here: CBR red luminescence, cell number
[2] = measured here: IkBa-CBG green luminescence

Row | Compound | AC50 [1] | AC50 [2]
1 | O=C(O)c1ccc(CSc2nc3ccccc3o2)cc1 | 12.6 µM [falling, partial curve, poor fit] | 10 µM [falling, partial curve, poor fit]
2 | CN(Cc1nc(-c2cccc(Cl)c2)no1)C1CCOCC1 | 8.91 µM [rising, partial curve, poor fit] | –
3 | Cc1c(Cl)ccc2sc(N3CCN(C(=O)c4ccco4)CC3)nc12 | 1.41 µM [rising, full curve, poor fit] | –
4 | Nc1c(-c2ccccc2)cnn1-c1ccccc1 | 8.91 µM [falling, partial curve, poor fit] | –
5 | COc1cccc(-n2cc(CN(C)Cc3nc(Cc4ccccc4)no3)cn2)c1 | 35.5 µM [rising, single point] | –
6 | COc1cc(-c2noc(C)c2C#Cc2ccccn2)cc(OC)c1OC | 35.5 µM [rising, single point] | –
7 | Cc1nc2nc[nH]c2cc1Br | 10 µM [falling, partial curve, poor fit] | –
8 | COc1cc(C(=O)OCC(=O)N(CC(C)C)C2CCS(=O)(=O)C2)ccc1OCC(C)C (centres undefined) | 20.6 µM [falling, single point] | –
9 | Cc1cc(Nc2cccc(Cl)c2)n2ncnc2n1 | 5.17 µM [rising, partial curve, poor fit] | –
10 | C[C@@]12C(=O)Nc3ccccc3C(=O)N1[C@H]1c3cc(Br)ccc3OC[C@@H]1[C@@H]2c1ccccc1 | 3.26 µM [falling, full curve] | 2.59 µM [rising, full curve, poor fit]
11 | COc1ccc2c(c1)CCc1c(C(=O)NCC(C)C)noc1-2 | 25.1 µM [falling, single point] | –
12 | COc1ccccc1-c1nc(-c2ccc(Br)o2)no1 | 3.26 µM [falling, full curve] and 1.58 µM [falling, full curve] | –
13 | CCOc1cnc(-c2ccc(Cl)cc2)o1 | 29.1 µM [rising, single point] | –
14 | O=C(CSc1nncs1)Nc1ccc(Cl)cc1C(F)(F)F | 0.0058 µM [rising, full curve, poor fit] | –
15 | CC(=O)Nc1ccc(C)c(NC(=S)Nc2ccc(F)cc2)c1 | 0.316 µM [rising, full curve, poor fit] | –
16 | CCOc1ccc(C2Nc3ccccc3C(CC)(CC)O2)cc1 (centres undefined) | 0.1 µM [rising, full curve, poor fit] | –
17 | COc1ccc(/C=C/C(=O)Nc2ccccc2C)cc1S(=O)(=O)N1CCOCC1 | 7.94 µM [falling, partial curve, poor fit] | –
18 | COc1ccc(Nc2nc(C)cc(C)c2C#N)c(OC)c1 | 0.562 µM [rising, full curve, poor fit] | –
19 | CCn1c2nc(SCCN3CCOCC3)nnc2c2cc(C)cc(C)c21 | 22.4 µM [falling, single point] | –
20 | Cc1ccc(-c2csc(N(Cc3ccco3)C(=O)c3cccs3)n2)cc1 | 18.4 µM [rising, single point] | –
21 | COc1ccc(NC(=O)CSC2CC(=O)N(c3ccc4c(c3)OCCO4)C2=O)cc1 (centres undefined) | 1.84 µM [rising, partial curve, poor fit] | –

Row | Compound | AC50 [1] | AC50 [2]
22 | CCOC(=O)c1c(NC(=O)CN2CCN(C)CC2)sc(C(=O)Nc2ccccc2)c1C | 11.2 µM [falling, single point] | –
23 | CC(=O)Oc1ccc(NC(=O)CCC2CCCCC2)c(C(=O)O)c1 | 1.64 µM [falling, full curve] | –
24 | COc1ccc(CCNC(=O)C(=O)NN=C2CCCCCCC2)cc1OC | 5.62 µM [rising, single point] | –
25 | Cc1cc(NC(=O)CCSc2nc(-c3ccco3)cc(C(F)(F)F)n2)n(-c2ccccc2)n1 | 25.9 µM [falling, single point] | 20.6 µM [rising, partial curve, poor fit]
26 | CCn1nc(C(=O)OC2CCOC2=O)c2ccccc2c1=O (centres undefined) | 16.4 µM [falling, single point] | –
27 | Cc1cc(=O)[nH]c(SCCCOc2ccc3c(c2)CCC3)n1 | 6.51 µM [rising, partial curve, poor fit] | –
28 | Cc1ccc(NC(=O)N2CCCN(Cc3ccc(F)cc3)C2)cc1C | 35.5 µM [falling, partial curve, poor fit] | –
29 | COC(=O)c1cc(OC)c(OC)cc1NC(=O)CN1C(=O)c2ccccc2C1=O | 0.517 µM [rising, partial curve] | –
30 | COc1ccc(/C=C2\CCc3ccccc3C2=O)cc1Cn1cccn1 | 2.91 µM [rising, single point] | –
31 | CCOc1ccc(Br)cc1/C=N/NC(=O)c1ccncc1 | 0.259 µM [falling, partial curve, poor fit] | –
32 | O=[N+]([O-])c1cc([N+](=O)[O-])c2n[nH]c(-c3ccccc3)c2c1 | 5.62 µM [rising, single point] | –
33 | CSCCC(NC(=O)c1ccccc1Br)C(=O)NCc1ccc(F)cc1 (centres undefined) | 2.82 µM [rising, single point] | –
34 | C1=C(CCNc2ncnc3c2cnn3-c2ccccc2)CCCC1 | 0.731 µM [rising, full curve, poor fit] | –
35 | O=C(Nc1nc(-c2ccccc2)c(-c2ccccc2)o1)c1ccc(F)cc1 | 3.16 µM [falling, single point] | –
36 | Cc1csc(NC(=O)CSc2nsc(SCC(=O)Nc3nc(C)cs3)c2C#N)n1 | 35.5 µM [falling, single point] | –
37 | CCOC(=O)CN1CC23C=CC(O2)C(C(=O)O)C3C1=O (centres undefined) | 0.517 µM [rising, full curve, poor fit] | –
38 | Cc1cccc(NC(=O)CCC(=O)N/N=C/c2ccc(O)cc2O)c1 | 35.5 µM [falling, single point] | –
39 | CN(C)c1cccc(C(=O)N/N=C/c2ccccc2F)c1 | 3.98 µM [falling, full curve, poor fit] | –
40 | O=C(CSc1cn(CCNC(=O)c2cccs2)c2ccccc12)NCc1ccccc1 | 23.1 µM [falling, single point] | –
41 | CCOc1ccc(NC(=O)CN(C)C(=O)c2ccccc2Cc2ccccc2)cc1OCC | 18.4 µM [rising, single point] | –
42 | COc1ccc(N(CC(=O)Nc2ccccc2OC)S(=O)(=O)c2ccc(NC(C)=O)cc2)cc1 | 35.5 µM [falling, single point] | –

Row | Compound | AC50 [1] | AC50 [2]
43 | O=C1NC(=NCc2ccccc2)S/C1=C/c1ccc(O)cc1 | 29.1 µM [falling, single point] | 2.91 µM [falling, partial curve, poor fit]
44 | CCOC(=O)c1c(NC(=O)c2ccccc2)sc2c(O)c(CN(CC)CC)ccc12 | 1 µM [falling, full curve] | –
45 | CCCCN(CC)C(=O)c1oc2ccc(S(=O)(=O)N3CCCC3)cc2c1C | 3.98 µM [rising, single point] | 5.62 µM [falling, single point]
46 | Cn1c(NC(=O)c2ccccc2F)cc(=O)n(C)c1=O | 29.1 µM [rising, single point] | –
47 | C=CCN1C(=O)C2C3CC(=O)C(c4ccccc43)C2C1=O (centres undefined) | 0.708 µM [rising, full curve, poor fit] | –
48 | COc1cccc(C(=O)NCCS(=O)(=O)N2CCCC2)c1 | 13 µM [rising, partial curve] | –
49 | c1ccc2[nH]c(-c3ccnc4ccccc34)nc2c1 | 11.6 µM [falling, partial curve, poor fit] and 11.2 µM [falling, partial curve] | –
50 | COc1ccc(C(=O)Nc2ccccc2C(=O)O)cc1Cl | 1.16 µM [falling, full curve] | –
51 | CCc1cc2c(=O)oc(-c3ccc(F)cc3)nc2s1 | 3.16 µM [falling, full curve] | –
52 | Cc1nn(-c2ccccc2)c(C)c1/C=N/NC(=O)c1cc(-c2cccs2)[nH]n1 | – | 2.59 µM [falling, full curve]
53 | N#CC1=C(N)NC(=S)C(C(N)=O)C1c1ccc([N+](=O)[O-])cc1 (centres undefined) | 35.5 µM [falling, single point] | –
54 | c1ccc(CSc2nnc(-c3cccs3)o2)cc1 | 0.251 µM [rising, full curve, poor fit] | –
55 | COC(=O)c1ccc(NC(=O)c2c(NCc3ccc(C)o3)sc3c2CCCC3)cc1 | 8.91 µM [falling, partial curve, poor fit] | –
56 | C/C(=N\NC(=O)c1nc2ccccn2c1C)c1ccc2c(c1)OCO2 | 6.51 µM [rising, partial curve, poor fit] | –
57 | O=C(NCCO)c1ccc2c3n(nc2c1)-c1ccccc1CO3 | 3.55 µM [falling, full curve] | –
58 | O=C(Nc1cccc(S(=O)(=O)N2CCOCC2)c1)c1ccco1 | 29.1 µM [falling, single point] | 29.1 µM [rising, partial curve, poor fit]
59 | O=C(Nc1ccc2nc(-c3ccccn3)[nH]c2c1)C1CCCCC1 | 16.4 µM [falling, single point] | –
60 | COc1cc(/C=C/C(=O)c2ccc(Cl)s2)cc(OC)c1O | 11.6 µM [falling, partial curve, poor fit] | –
61 | CCn1c(=O)cc(SCC(=O)Nc2ccc3c(c2)OCO3)c2ccccc21 | 16.4 µM [falling, single point] | –
62 | C(=N\Nc1nc2ccccc2[nH]1)/c1ccccn1 | 1.58 µM [falling, full curve] | –
63 | CSc1nc(N)nc2c1ncn2CC(=O)NCc1ccccc1 | 18.4 µM [falling, partial curve, poor fit] | –
